Measured values taken from publication PMC9464213.
No constants are given. Whether binding was seen depends on the method and setting. In cells and extracts the contact can be indirect. Some results given as binding are weak or reduced against the parent protein; the word gives no strength.

The chains behind the UniProt entries cited, without tags or fusion partners.
UniProt P46937: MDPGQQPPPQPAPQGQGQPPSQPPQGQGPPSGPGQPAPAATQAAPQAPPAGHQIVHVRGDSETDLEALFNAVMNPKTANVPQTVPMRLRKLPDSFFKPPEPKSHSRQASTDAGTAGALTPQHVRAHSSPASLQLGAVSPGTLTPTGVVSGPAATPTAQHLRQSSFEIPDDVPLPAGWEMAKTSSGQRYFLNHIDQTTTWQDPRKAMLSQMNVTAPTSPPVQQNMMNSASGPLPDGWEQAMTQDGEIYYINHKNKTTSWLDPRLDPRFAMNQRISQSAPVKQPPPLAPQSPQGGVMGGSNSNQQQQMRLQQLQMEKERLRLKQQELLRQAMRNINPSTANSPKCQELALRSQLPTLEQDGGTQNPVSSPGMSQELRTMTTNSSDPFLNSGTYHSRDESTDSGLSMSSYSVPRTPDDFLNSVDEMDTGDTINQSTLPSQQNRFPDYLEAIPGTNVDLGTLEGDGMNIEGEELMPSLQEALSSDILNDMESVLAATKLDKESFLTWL

Biological target: T1, Basonuclin 2 (BNC2), endogenous in LX2 cells (human (endogenous in LX2)) (UniProt Q6ZN30)
T1 sequence: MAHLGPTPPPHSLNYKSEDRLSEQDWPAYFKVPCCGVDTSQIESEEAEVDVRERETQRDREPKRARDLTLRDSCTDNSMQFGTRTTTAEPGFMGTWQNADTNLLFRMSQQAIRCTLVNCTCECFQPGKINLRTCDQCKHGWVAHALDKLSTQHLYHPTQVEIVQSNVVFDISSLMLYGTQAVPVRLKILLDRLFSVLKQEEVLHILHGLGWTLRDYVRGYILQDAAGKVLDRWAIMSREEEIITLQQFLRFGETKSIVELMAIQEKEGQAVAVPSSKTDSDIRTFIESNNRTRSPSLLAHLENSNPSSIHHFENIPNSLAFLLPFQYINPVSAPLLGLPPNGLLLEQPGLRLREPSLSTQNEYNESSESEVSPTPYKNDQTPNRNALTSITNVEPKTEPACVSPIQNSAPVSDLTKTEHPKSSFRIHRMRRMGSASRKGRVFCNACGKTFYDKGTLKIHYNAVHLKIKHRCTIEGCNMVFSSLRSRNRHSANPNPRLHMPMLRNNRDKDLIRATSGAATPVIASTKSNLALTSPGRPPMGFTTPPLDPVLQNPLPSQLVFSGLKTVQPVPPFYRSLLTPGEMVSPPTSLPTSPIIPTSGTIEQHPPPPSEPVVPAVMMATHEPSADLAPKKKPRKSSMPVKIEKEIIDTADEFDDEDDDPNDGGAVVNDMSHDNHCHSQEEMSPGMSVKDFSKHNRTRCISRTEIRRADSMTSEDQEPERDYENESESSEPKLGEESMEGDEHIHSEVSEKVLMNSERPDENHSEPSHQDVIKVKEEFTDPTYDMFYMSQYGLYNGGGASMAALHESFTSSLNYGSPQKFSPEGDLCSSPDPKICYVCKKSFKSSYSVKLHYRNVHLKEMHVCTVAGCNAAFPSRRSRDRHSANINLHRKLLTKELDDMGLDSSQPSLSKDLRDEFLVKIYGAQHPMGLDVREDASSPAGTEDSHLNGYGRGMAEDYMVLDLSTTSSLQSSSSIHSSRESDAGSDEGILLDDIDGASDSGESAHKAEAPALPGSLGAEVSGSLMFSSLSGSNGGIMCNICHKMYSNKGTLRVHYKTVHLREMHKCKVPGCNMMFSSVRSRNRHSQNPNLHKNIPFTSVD
Assay: co-IP; endogenous proteins cross-linked in LX2 cells with 1% formaldehyde for 10 min; nuclear extract immunoprecipitated with anti-BNC2 antibody or control IgG; western blot

binding: binds
Substance: Yes-Associated Protein 1 (YAP1), endogenous in LX2 cells (from UniProt P46937 1-504)
